Reference: patent US8461305B2, “L-fucose α1→6 specific lectin” (J-Oil Mills, Inc., priority 2008, dated 2013)

How the values were obtained:
Mucin (bovine) (bovine) [1] = assay: ELISA with biotin-labeled lectin
Mucin (pig) (pig) [2] = assay: ELISA with biotin-labeled lectin
Mucin (bovine) (bovine) [3] = assay: ELISA, glycoprotein coated, biotin-labeled lectin; thyroglobulin = 100%; ⊚ = relative values of 120 to 80
Mucin (pig) (pig) [4] = assay: as above
Mucin (pig) (pig) [5] = assay: hemagglutination inhibition

Measured: binding

B1: Aleuria aurantia lectin (AAL) of Comparison Example 1 (other, UniProt P18891 2-313, looked up)
chain: PTEFLYTSKIAAISWAATGGRQQRVYFQDLNGKIREAQRGGDNPWTGGSSQNVIGEAKLFSPLAAVTWKSAQGIQIRVYCVNKDNILSEFVYDGSKWITGQLGSVGVKVGSNSKLAALQWGGSESAPPNIRVYYQKSNGSGSSIHEYVWSGKWTAGASFGSTVPGTGIGATAIGPGRLRIYYQATDNKIREHCWDSNSWYVGGFSASASAGVSIAAISWGSTPNIRVYWQKGREELYEAAYGGSWNTPGQIKDASRPTPSLPDTFIAANSSGNIDISVFFQASGVSLQQWQWISGKGWSIGAVVPTGTPAGW
modifications: biotin-labeled in the Western blotting and ELISA experiments
notes: Bought lectin
binds: all assays above

Results are given in words; binding and its absence hold for the method and conditions named. A result given as binding can be weak or reduced; the word gives no strength.
